No constants are given. Whether binding was seen depends on the method and setting. Binding seen in cells or lysates may run through a third protein. A yes stands for co-enrichment or nearness to the bait. Other partners may have been found. Each block holds one molecule with its values, some of them ahead of it.
Target: T1, RIN4 (Arabidopsis thaliana (endogenous in leaves)) (UniProt Q8GYN5)
T1 sequence: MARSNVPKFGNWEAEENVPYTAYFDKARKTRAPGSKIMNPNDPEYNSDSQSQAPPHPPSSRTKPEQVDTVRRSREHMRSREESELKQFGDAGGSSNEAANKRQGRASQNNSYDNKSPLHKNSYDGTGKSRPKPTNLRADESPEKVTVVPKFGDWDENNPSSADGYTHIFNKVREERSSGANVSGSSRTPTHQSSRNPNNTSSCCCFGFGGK
Assay: affinity purification with mass spectrometry; affinity-purified anti-RIN4 antibody coupled to Protein A beads, whole leaf extract in 50 mM HEPES, 50 mM NaCl, 10 mM EDTA, 0.2% Triton X-100, pH 7.5, 3 h at 4°C; washes with 50 mM and 150 mM NaCl; elution at pH 2.5; LC-MS/MS; three biological …; negative control rps2-101c/rin4

Chains of the proteins cited; added tags and fusions are not shown. Lines headed by an entry give the natural chain unless they say otherwise; changes in a name come on top.
UniProt Q9LHA6: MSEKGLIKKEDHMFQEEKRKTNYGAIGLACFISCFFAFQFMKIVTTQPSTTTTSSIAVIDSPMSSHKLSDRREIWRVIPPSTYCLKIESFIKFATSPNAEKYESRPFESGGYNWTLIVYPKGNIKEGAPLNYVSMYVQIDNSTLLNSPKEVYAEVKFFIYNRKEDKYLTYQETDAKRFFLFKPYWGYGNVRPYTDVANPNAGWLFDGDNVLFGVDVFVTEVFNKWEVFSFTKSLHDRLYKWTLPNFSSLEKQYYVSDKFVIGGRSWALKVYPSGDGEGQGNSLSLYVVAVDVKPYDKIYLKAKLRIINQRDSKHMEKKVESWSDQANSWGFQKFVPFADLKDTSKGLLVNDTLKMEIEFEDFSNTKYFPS

binding: binds
Molecule: MATH domain protein (At3g28220) (from UniProt Q9LHA6)

binding: binds
B1: Jacalin domain protein (At1g52000) (protein, UniProt Q9ZU23 1-730)
chain: MSWDDGKHTKVKRVQLTFDDVIRSIEVEYDGTSLKSQPRGTAGTKIDGFTLSSDEYITEVNGYYKTTFSGEVITSLTFKTNKRTYGTYGNKTSSYFSVAAPKDNQIVGFLGSSSHALNSIDAHFAPAPPPGSTGAKPGASGIGSDSGSIGSAGTNPGADGTRETEKNAGGSKPSSGSAGTNPGASAVGNGETEKNAGGSKPSSGSAGTNPGASAGGNGETEKNVGGSKPSSGKAGTNPGANAGGNGGTEKNAGGSKSSSGSARTNPGASAGGNGETVSNIGDTESNAGGSKSNDGANNGASGIESNAGSTGTNFGAGGTGGIGDTESDAGGSKTNSGNGGTNDGASGIGSNDGSTGTNPGAGGGTDSNIEGTENNVGGKETNPGASGIGNSDGSTGTSPEGTESNADGTKTNTGGKESNTGSESNTNSSPQKLEAQGGNGGNQWDDGTDHDGVMKIHVAVGGLGIEQIRFDYVKNGQLKEGPFHGVKGRGGTSTIEISHPDEYLVSVEGLYDSSNIIQGIQFQSNKHTSQYFGYEYYGDGTQFSLQVNEKKIIGFHGFADSHLNSLGAYFVPISSSSSSLTPPPNKVKAQGGSYGETFDDGAFDHVRKVYVGQGDSGVAYVKFDYEKDGKKETQEHGKMTLSGTEEFEVDSDDYITSMEVYVDKVYGYKSEIVIALTFKTFKGETSPRFGIETENKYEVKDGKGGKLAGFHGKASDVLYAIGAYFIPAAN

binding: binds
B2: Jacalin domain protein (At3g16420) (protein, UniProt O04314 1-298)
chain: MAQKVEAQGGKGANLWDDGSTHDAVTKIQLAAGIDGIQYVQFDYVKNGQPEQAPLRGTKGRVLPADPFVINHPDEHLVSVEGWYSPEGIIQGIKFISNKKTSDVIGSDEGTHFTLQVKDKKIIGFHGSAGGNLNSLGAYFAPLTTTTPLTPAKQLTAFGSDDGTVWDDGAYVGVKKVYVGQAQDGISAVKFVYDKSPEEVTGEEHGKSTLLGFEEFVLDYPSEYITAVDGTYDKIFGSDGSVITMLRFKTNKQTSPPFGLEAGTVFELKEEGHKIVGFHGRADVLLHKIGVHVRPLSN

binding: binds
B3: ERD4 (Early Responsive to Dehydration 4) (protein, UniProt Q9C8G5 1-724)
chain: MEFGSFLVSLGTSFVIFVILMLLFTWLSRKSGNAPIYYPNRILKGLEPWEGTSLTRNPFAWMREALTSSEQDVVNLSGVDTAVHFVFLSTVLGIFACSSLLLLPTLLPLAATDNNIKNTKNATDTTSKGTFSQLDNLSMANITKKSSRLWAFLGAVYWISLVTYFFLWKAYKHVSSLRAQALMSADVKPEQFAILVRDMPAPPDGQTQKEFIDSYFREIYPETFYRSLVATENSKVNKIWEKLEGYKKKLARAEAILAATNNRPTNKTGFCGLVGKQVDSIEYYTELINESVAKLETEQKAVLAEKQQTAAVVFFTTRVAAASAAQSLHCQMVDKWTVTEAPEPRQLLWQNLNIKLFSRIIRQYFIYFFVAVTILFYMIPIAFVSAITTLKNLQRIIPFIKPVVEITAIRTVLESFLPQIALIVFLAMLPKLLLFLSKAEGIPSQSHAIRAASGKYFYFSVFNVFIGVTLAGTLFNTVKDIAKNPKLDMIINLLATSLPKSATFFLTYVALKFFIGYGLELSRIIPLIIFHLKKKYLCKTEAEVKEAWYPGDLSYATRVPGDMLILTITFCYSVIAPLILIFGITYFGLGWLVLRNQALKVYVPSYESYGRMWPHIHQRILAALFLFQVVMFGYLGAKTFFYTALVIPLIITSLIFGYVCRQKFYGGFEHTALEVACRELKQSPDLEEIFRAYIPHSLSSHKPEEHEFKGAMSRYQDFNAIAGV

binding: binds
B4: Remorin (At3g61260) (protein, UniProt Q9M2D8 1-212)
chain: MAEEQKIALESESPAKVTTPAPADTPAPAPAEIPAPAPAPTPADVTKDVAEEKIQNPPPEQIFDDSKALTVVEKPVEEPAPAKPASASLDRDVKLADLSKEKRLSFVRAWEESEKSKAENKAEKKIADVHAWENSKKAAVEAQLKKIEEQLEKKKAEYAERMKNKVAAIHKEAEERRAMIEAKRGEDVLKAEETAAKYRATGIVPKATCGCF

— PMC2694982
